# From publication PMC5755467
# Sequences of proteins named here, by UniProt entry; tags and fusion partners are left off. A change or cut given only in a name is not applied to a line headed by its entry.
# UniProt Q92831: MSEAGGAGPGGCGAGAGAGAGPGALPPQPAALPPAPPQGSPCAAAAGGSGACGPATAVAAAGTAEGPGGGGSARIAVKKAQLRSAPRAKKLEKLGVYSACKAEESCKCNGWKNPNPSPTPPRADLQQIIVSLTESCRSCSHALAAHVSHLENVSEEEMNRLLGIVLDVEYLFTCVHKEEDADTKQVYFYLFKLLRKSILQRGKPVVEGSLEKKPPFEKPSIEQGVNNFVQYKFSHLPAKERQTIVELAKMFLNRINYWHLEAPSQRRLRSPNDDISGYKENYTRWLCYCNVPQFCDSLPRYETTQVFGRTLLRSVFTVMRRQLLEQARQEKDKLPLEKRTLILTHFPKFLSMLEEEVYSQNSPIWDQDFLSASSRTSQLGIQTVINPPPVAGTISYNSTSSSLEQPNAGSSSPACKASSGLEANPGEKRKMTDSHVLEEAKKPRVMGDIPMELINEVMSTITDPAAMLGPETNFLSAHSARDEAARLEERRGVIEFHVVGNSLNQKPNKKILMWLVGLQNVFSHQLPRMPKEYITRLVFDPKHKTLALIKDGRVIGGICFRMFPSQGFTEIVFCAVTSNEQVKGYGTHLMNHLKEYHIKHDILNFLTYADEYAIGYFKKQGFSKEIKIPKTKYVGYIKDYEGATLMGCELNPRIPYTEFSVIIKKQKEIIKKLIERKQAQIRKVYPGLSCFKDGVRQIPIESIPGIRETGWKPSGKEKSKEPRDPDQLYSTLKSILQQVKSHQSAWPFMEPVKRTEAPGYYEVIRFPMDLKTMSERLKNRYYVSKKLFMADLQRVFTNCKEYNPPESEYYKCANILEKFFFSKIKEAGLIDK
# Results are given in words; binding and its absence hold for the method and conditions named. In cells and extracts the contact can be indirect. Binding can be weak; no strength is given.
# B1: Lin28B (endogenous) (protein, UniProt Q6ZN17 1-250)
# chain: MAEGGASKGGGEEPGKLPEPAEEESQVLRGTGHCKWFNVRMGFGFISMINREGSPLDIPVDVFVHQSKLFMEGFRSLKEGEPVEFTFKKSSKGLESIRVTGPGGSPCLGSERRPKGKTLQKRKPKGDRCYNCGGLDHHAKECSLPPQPKKCHYCQSIMHMVANCPHKNVAQPPASSQGRQEAESQPCTSTLPREVGGGHGCTSPPFPQEARAEISERSGRSPQEASSTKSSIAPEEQSKKGPSVQKRKKT
# Biological target: FLAG-PCAF-ΔHAT (UniProt Q92831)
# Assay: co-IP; whole cell extracts of FLAG-PCAF or PCAF-ΔHAT-transfected cells IP-ed with anti-FLAG; blotted with anti-FLAG and anti-Lin28B (endogenous Lin28B); IP with IgG as control
binder,measurement,value
B1,binding,binds
